According to US20120094896A1:
These are yes or no findings as the source states them, for the method shown. Sequences can lack the tags named with a protein.

Experiments:
[1] = biological target: HPVE6 (false bait) (HPV, type not stated); assay: yeast two-hybrid
[2] = biological target: HPVE7 (false bait) (HPV, type not stated); assay: yeast two-hybrid

**Q.** LYETILILLFLDVDTG was tested. Which binding [1] did it give?
**A.** The binding was “no binding”.

**Q.** What about the binding [2] of the same binder?
**A.** The binding was “no binding”.
